# Measurements from PMC12782891.
# Tested on: GST-OsSAE1 (Oryza sativa)
# Assay: EMSA
# Details: competed by excess unlabeled probe; LightShift Chemiluminescent EMSA Kit (Thermo Fisher), manufacturer's instructions; pH and temperature not stated; recombinant protein; protein details: N-terminal GST (pGEX6p-1); label: biotin
row,Sequence,binding result
1,CTGATTTTTGCCCGAGGCACGGCCGCCACAGCCTCTAGGAGTGCACCTG (double strand) [OsKS1 promoter P1 GCC-box probe],binds
2,AGAACCGGAGAAGAGAGCAATGGCGGCAATGCTTAATTATCTGCTGGAG (double strand) [OsGA2ox3 promoter P2 GCC-box probe],binds

# The exact form of at least one protein or probe is not confirmed.
